Measured data: PubChem BioAssay AID743121 (NCATS, 2013)
This is an unselected part of about 26,000 reagents tested. 167 of all reagents (0.63%) were called active. 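Calls are per gene from RSA p-values that are not deposited; an individual active-marked siRNA can sensitise only weakly.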 Unmarked entries are inactive. The numbers tell different reagents against one gene apart. Reagent sequences are not shown.

- Test: 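Knock-downs that sensitise breast cancer cells to camptothecin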 (primary screen)
- Cell system: MDA-MB-231 cells, a human breast cancer line
- Knock-down reagent: single siRNA against human genes, 20 nM siRNA (0.8 pmol per well)
- Timing: 120 h (drug added 48 h after transfection, read 72 h later)
- Challenge: camptothecin 20 nM (about EC30) for 72 h; vehicle 0.1% DMSO in parallel plates
- Read-out: 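Cell viability by ATP luminescence (CellTiter-Glo) as % of non-targeting siRNA wells, and the log2 ratio of viability without drug over viability with camptothecin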
- Direction: log2 vehicle/camptothecin viability: higher = stronger sensitisation to camptothecin; viability with camptothecin and viability without drug: higher = more viable cells
- Call rule: 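Active genes have an RSA gene-level p-value below 0.001, computed from the ratios of their separate siRNAs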

target gene	reagent	log2 vehicle/camptothecin viability	viability with camptothecin (% of control)	viability without drug (% of control)
ANXA1	1	-0.0816	41.7	39.4
ANXA1	2	-0.0719	101	96
ANXA1	3	0.0747	80.5	84.7
ANXA1	4	-0.0762	58.9	55.9
RNF183	1	-0.206	67.4	58.4
RNF183	2	-0.588	79.4	52.8
RNF183	3	-0.344	61.6	48.5
RNF183	4	-0.236	69.9	59.3
FMO3	1	-0.213	103	89
FMO3	2	-0.403	92.3	69.8
FMO3	3	0.13	47.2	51.7
FMO3	4	0.0968	103	111
GRIN2D	1	0.266	52.4	63
GRIN2D	2	0.126	83.5	91.1
GRIN2D	3	-0.176	96.2	85.2
GRIN2D	4	-0.626	44.6	28.9
SGCB	1	-0.0492	72.6	70.2
SGCB	2	0.0361	48.5	49.7
SGCB	3	-0.0126	73.1	72.4
NEUROD1	1	-0.277	102	84.5
NEUROD1	2	-0.053	96.9	93.4
NEUROD1	3	-0.00401	107	107
NEUROD1	4	-0.445	76.3	56
ABCC8	1	-0.126	97.4	89.3
ABCC8	2	0.681	30.8	49.3
ABCC8	3	-0.0881	112	105

The list goes on, starting with the last 2 of the part before.
target gene	reagent	log2 vehicle/camptothecin viability	viability with camptothecin (% of control)	viability without drug (% of control)
ABCC8	2	0.681	30.8	49.3
ABCC8	3	-0.0881	112	105
GPR108	1	-0.198	84.3	73.4
GPR108	2	-0.0338	103	101
GPR108	3	0.114	73.3	79.3
GPR108	4	0.189	95	108
PLA2G7	1	0.0038	105	105
PLA2G7	2	-0.0343	86	83.9
PLA2G7	3	-0.26	97.9	81.7
PLA2G7	4	-0.461	70.1	50.9
NAALADL1	1	-0.348	41.7	32.8
NAALADL1	2	-0.57	72.5	48.8
NAALADL1	3	-0.24	74.4	63
NAALADL1	4	-0.281	129	106
CRLF1	1	-0.395	128	97.2
CRLF1	2	-0.112	84.1	77.8
CRLF1	3	-0.0609	85	81.4
CRLF1	4	-0.034	101	98.5
PTPRK	1	0.0634	101	105
PTPRK	2	-0.673	59.4	37.3
PTPRK	3	-0.132	117	107
PTPRK	4	-0.38	87.6	67.3
